Record: PubChem BioAssay AID1159584 (Peter MacCallum Cancer Centre, 2016)

Aim: 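Genes that CDH1-null MCF10A cells selectively depend on to survive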 (primary screen)
System: human MCF10A breast epithelial cells, parental and CDH1-null
Reagent: siRNA against human genes
Measured: 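ATP luminescence (CellTiter-Glo) viability per line relative to mean mock wells over all plates, and the ratio of CDH1-null to parental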
Scale: CDH1-null / parental viability ratio: higher = CDH1-null cells survive relatively better than parental
In all, the deposit lists about 18,000 reagents; this is an unselected part. Not all columns of the deposit are shown. The record does not give: the amount of reagent, the time to read-out.

gene symbol | CDH1-null / parental viability ratio
CTAG1B | 0.9
EDN3 | 0.71
DNAJC13 | 1.05
FAM219A | 0.8
KRT38 | 1.33
GTF3A | 1.56
IL17F | 1.24
PTPDC1 | 1.48
BPI | 1.04
QPCT | 0.87
FOXB2 | 0.76
ZNF195 | 1.18
FZD8 | 0.73
TRIM77 | 0.9
PAQR7 | 1
SMARCAD1 | 1.02
SPEG | 0.94
CCER1 | 1
GPBAR1 | 1.19
TIGD6 | 0.64
ZMYND10 | 1.17
SPATA16 | 0.77
VEZT | 0.95
KANK2 | 0.93
UBE2Z | 1.52
CCN4 | 0.91
ARHGDIG | 1.14
DLX1 | 0.72
PEX26 | 0.98
OR51I2 | 0.77
OR4F6 | 0.81
CCDC28B | 1.05
SAXO4 | 0.9
DHX8 | 0.66
OR6F1 | 1.09
GTPBP1 | 0.9
CYP2F1 | 0.87
AP5S1 | 1.48
SLC4A1 | 0.95
LGALS9B | 1.37
FTO | 1.07
VPS13A | 1.01
A4GALT | 1.1
ARID4A | 0.47
SAA4 | 1.01
AP1S1 | 0.91
SIK2 | 0.89
ITIH1 | 1.15
HDHD3 | 1.08
CORO7 | 1.67
RSF1 | 0.78
HARS1 | 1.09
LCN6 | 1.03
ANKRD27 | 1.17
XYLT2 | 1.31
PXDN | 0.94
SLC4A8 | 0.98
TMCO6 | 1.19
DNAJC22 | 0.86
TRH | 1.26
MYF6 | 1.12
TSPO | 1.38
MLYCD | 0.97
PLAC8L1 | 1.32
NPSR1 | 0.81
EYA2 | 1.45
SGO2 | 0.93
SMG5 | 0.91

In a second layout: 12 of the entries above.
{"gene symbol": "IL17F", "CDH1-null / parental viability ratio": 1.24}
{"gene symbol": "PTPDC1", "CDH1-null / parental viability ratio": 1.48}
{"gene symbol": "BPI", "CDH1-null / parental viability ratio": 1.04}
{"gene symbol": "QPCT", "CDH1-null / parental viability ratio": 0.87}
{"gene symbol": "FOXB2", "CDH1-null / parental viability ratio": 0.76}
{"gene symbol": "ZNF195", "CDH1-null / parental viability ratio": 1.18}
{"gene symbol": "FZD8", "CDH1-null / parental viability ratio": 0.73}
{"gene symbol": "TRIM77", "CDH1-null / parental viability ratio": 0.9}
{"gene symbol": "PAQR7", "CDH1-null / parental viability ratio": 1}
{"gene symbol": "SMARCAD1", "CDH1-null / parental viability ratio": 1.02}
{"gene symbol": "SPEG", "CDH1-null / parental viability ratio": 0.94}
{"gene symbol": "CCER1", "CDH1-null / parental viability ratio": 1}
